This assay relates to L1210 leukemia ip in BDF1 mice, survival T/C. The experiment in a line: NCI In Vivo Anticancer Drug Screen. Data for tumor model L1210 Leukemia (intraperitoneal) in B6D2F1 (BDF1) mice. The following applies: T/C endpoint: mean survival time, higher T/C = longer survival.
[1] abbreviates: dose: 100.0 mg/kg/injection, schedule: Q01DX009 (ip), vehicle: Klucel (hydroxypropylcellulose) (HPC).
Where [2] appears, read: dose: 100.0 mg/kg/injection, schedule: Q04DX003 (ip), vehicle: Klucel (hydroxypropylcellulose) (HPC).
The mark [3] stands for this setting: dose: 200.0 mg/kg/injection, schedule: Q04DX003 (ip), vehicle: Klucel (hydroxypropylcellulose) (HPC).
The mark [4] stands for this setting: dose: 400.0 mg/kg/injection, schedule: Q04DX003 (ip), vehicle: Klucel (hydroxypropylcellulose) (HPC).
The mark [5] stands for this setting: dose: 50.0 mg/kg/injection, schedule: Q01DX009 (ip), vehicle: saline with Tween-80.
The mark [6] stands for this setting: dose: 100.0 mg/kg/injection, schedule: Q01DX009 (ip), vehicle: saline with Tween-80.
[7] abbreviates: dose: 50.0 mg/kg/injection, schedule: Q01DX001 (ip), vehicle: saline.
Setting [8] is: dose: 100.0 mg/kg/injection, schedule: Q01DX001 (ip), vehicle: saline.
The mark [9] stands for this setting: dose: 200.0 mg/kg/injection, schedule: Q01DX001 (ip), vehicle: saline.
Setting [10] is: dose: 400.0 mg/kg/injection, schedule: Q01DX001 (ip), vehicle: saline.
Setting [11] is: dose: 100.0 mg/kg/injection, schedule: Q01DX009 (ip), vehicle: saline.
Where [12] appears, read: dose: 200.0 mg/kg/injection, schedule: Q01DX009 (ip), vehicle: saline.
Where [13] appears, read: dose: 100.0 mg/kg/injection, schedule: Q04DX002 (ip), vehicle: saline.

Among the data in PubChem BioAssay AID248 (DTP/NCI, 2004) are T/C and survivor count values, retold here.

The list does not hold the whole screen: it gathers some chemical classes. Not every dose and run of a compound is shown. T/C is the treated group as % of the vehicle group. Some doses have a count of surviving animals in place of a T/C: the source holds a T/C of zero for them, seemingly a mark for toxic or unscored doses. Some survivor counts are full or nearly so, which does not show that the dose was tolerated: the source hardly ever lists a survival T/C far under the control, and the zero likely stands for such cases as well. Counts of survivors are from the toxicity check (mostly the fifth day) where no day follows; animals may have died later. Schedules are NCI's codes, taken here to give the interval after Q, in days (D) or hours (H), and the number of doses after X. Some metal complexes and salts are drawn in pieces, as in the source, so charges may not balance. Where survival is the endpoint, this PubChem deposit counts one and a half times the control or more as active, and values a quarter to a half above the control carry no call in these data; other NCI protocols may use other cut-offs. Some entries hold several experiments; the results are listed from low to high. Some T/C values are marked as having no survivor count here; that says nothing about deaths at the dose. Some T/C values carry the count of animals alive at the toxicity check (mostly the fifth day); where neither a count nor a note follows, no animal had died by that day.

Turning to `O=C(O)C(O)(c1ccccc1)c1ccccc1`, the T/C runs as follows: (dose: 100.0 mg/kg/injection, schedule: Q01DX001 (ip), vehicle: saline with Tween-80) 105 % of control [survivor count not shown]; (dose: 200.0 mg/kg/injection, schedule: Q01DX001 (ip), vehicle: saline with Tween-80) 93 % of control [survivor count not shown]; (dose: 400.0 mg/kg/injection, schedule: Q01DX001 (ip), vehicle: saline with Tween-80) 96 % of control [survivor count not shown].

Regarding `CCN(CC)CCOC(=O)C(O)(c1ccccc1)c1c(C)ccc(C)c1C` (stereo not given), the T/C (dose: 75.0 mg/kg/injection, schedule: Q01DX001 (ip), vehicle: saline) is 102 % of control.

With `CCCCOP(C)(O)=S` (stereo not given), the T/C was 102 % of control [survivor count not shown] (dose: 12.5 mg/kg/injection, schedule: Q04DX002 (ip), vehicle: saline with Tween-80) and 105 % of control [survivor count not shown] (dose: 25.0 mg/kg/injection, schedule: Q04DX002 (ip), vehicle: saline with Tween-80).

For `CCOC(=O)C(C)Oc1c([N+](=O)[O-])cc([N+](=O)[O-])cc1[N+](=O)[O-]` (stereo not given), the T/C (dose: 25.0 mg/kg/injection, schedule: Q01DX009 (ip), vehicle: Klucel (hydroxypropylcellulose) (HPC)) was 95 % of control; the T/C (dose: 25.0 mg/kg/injection, schedule: Q04DX003 (ip), vehicle: Klucel (hydroxypropylcellulose) (HPC)) was 102 % of control; the T/C (dose: 50.0 mg/kg/injection, schedule: Q01DX009 (ip), vehicle: Klucel (hydroxypropylcellulose) (HPC)) is 93 % of control; the T/C (dose: 50.0 mg/kg/injection, schedule: Q04DX003 (ip), vehicle: Klucel (hydroxypropylcellulose) (HPC)) is 91 % of control; the T/C under setting [1] was 95 % of control; the T/C under setting [2] is 100 and 102 % of control. Besides, the survivor count runs as follows: under setting [3], 6 of 6; under setting [4], 6 of 6.

Turning to `CC1CCC(OO)(OOC2(OO)CCC(C)CC2)CC1` (stereo not given), the T/C is 107 % of control [survivor count not shown] under setting [5]; 96 % of control [survivor count not shown] under setting [6]; 96 % of control [survivor count not shown] (dose: 200.0 mg/kg/injection, schedule: Q01DX009 (ip), vehicle: saline with Tween-80).

Turning to `Fc1cccc(CNCCCl)c1`, the T/C runs as follows: under setting [7], 97 % of control; under setting [8], 100 % of control; under setting [9], 103 % of control; under setting [10], 103 % of control.

As to `CC(C)CO[P+](=O)OCC(C)C`, the T/C under setting [7] is 105 % of control; the T/C (dose: 50.0 mg/kg/injection, schedule: Q01DX009 (ip), vehicle: saline) was 92 % of control; the T/C under setting [8] is 108 % of control; the T/C under setting [11] was 105 % of control; the T/C under setting [9] was 105 % of control; the T/C under setting [12] is 92 % of control. For the same molecule, the survivor count under setting [10] is listed as 1 of 4.

With `CN(C)[P+](C)(N(C)C)N(C)C`, under setting [13], the T/C was 89 % of control [survivor count not shown].

As for `ClCCNc1nc2cc(Br)ccc2c2ccc(Br)cc12`, the T/C runs as follows: (dose: 75.0 mg/kg/injection, schedule: Q01DX001 (ip), vehicle: carboxymethylcellulose (CMC)) 104 % of control; (dose: 75.0 mg/kg/injection, schedule: Q04DX003 (ip), vehicle: Klucel (hydroxypropylcellulose) (HPC)) 107 % of control; (dose: 150.0 mg/kg/injection, schedule: Q01DX001 (ip), vehicle: carboxymethylcellulose (CMC)) 106 % of control; (dose: 150.0 mg/kg/injection, schedule: Q04DX003 (ip), vehicle: Klucel (hydroxypropylcellulose) (HPC)) 100 % of control; (dose: 300.0 mg/kg/injection, schedule: Q01DX001 (ip), vehicle: carboxymethylcellulose (CMC)) 102 % of control [4 of 6 alive]; (dose: 300.0 mg/kg/injection, schedule: Q04DX003 (ip), vehicle: Klucel (hydroxypropylcellulose) (HPC)) 100 % of control.

As for `O=[N+]([O-])c1ccc(Nc2ccc(Oc3ccc([N+](=O)[O-])cc3[N+](=O)[O-])cc2)c([N+](=O)[O-])c1`, the T/C by setting is: under setting [1], 96 % of control [5 of 6 alive]; under setting [2], 95 % of control; (dose: 200.0 mg/kg/injection, schedule: Q01DX009 (ip), vehicle: Klucel (hydroxypropylcellulose) (HPC)) 100 % of control; under setting [3], 88 % of control; (dose: 400.0 mg/kg/injection, schedule: Q01DX009 (ip), vehicle: Klucel (hydroxypropylcellulose) (HPC)) 98 % of control [5 of 6 alive]; under setting [4], 95 % of control.

Turning to `CCSP(N)(=O)CC` (stereo not given), the T/C reads like this: (dose: 5.0 mg/kg/injection, schedule: Q01DX001 (ip), vehicle: saline) 101 % of control [survivor count not shown]; (dose: 10.0 mg/kg/injection, schedule: Q01DX001 (ip), vehicle: saline) 98 % of control [survivor count not shown].

Take `OOC1(OOC2(OO)CCCCCC2)CCCCCC1`: the T/C is, setting by setting: under setting [5], 104 % of control [survivor count not shown]; under setting [6], 104 % of control [survivor count not shown].

On to `O=P(Cl)(NC12CC3CC(CC(C3)C1)C2)c1ccccc1` (stereo not given), for which the T/C (dose: 75.0 mg/kg/injection, schedule: Q01DX009 (ip), vehicle: Klucel (hydroxypropylcellulose) (HPC)) is 91 % of control. The survivor count is recorded as 6 of 6 (dose: 150.0 mg/kg/injection, schedule: Q01DX009 (ip), vehicle: Klucel (hydroxypropylcellulose) (HPC)) and 4 of 6 (dose: 300.0 mg/kg/injection, schedule: Q01DX009 (ip), vehicle: Klucel (hydroxypropylcellulose) (HPC)).

Regarding `CCO[P+](=O)O.Nc1nc(N)nc(N)n1`, the T/C is, setting by setting: under setting [11], 91 % of control [5 of 6 alive]; (dose: 400.0 mg/kg/injection, schedule: Q01DX009 (ip), vehicle: saline) 87 % of control [5 of 6 alive]. Further, the survivor count under setting [12] is reported as 5 of 6.

Regarding `NP(=O)(OCCC(=O)O)N(CCCl)CCCl` (stereo not given), the T/C by setting is: (dose: 300.0 mg/kg/injection, schedule: Q01DX001 (ip), vehicle: saline with Tween-80) 98 % of control; (dose: 500.0 mg/kg/injection, schedule: Q01DX001 (ip), vehicle: saline with Tween-80) 110 % of control.

With `Cc1c(C)n(C)c2ccc(C(C)(C)c3ccccc3)cc12.O=C(c1cc([N+](=O)[O-])cc([N+](=O)[O-])c1)c1cc([N+](=O)[O-])cc([N+](=O)[O-])c1`, the T/C under setting [8] was 100 % of control, the T/C under setting [9] is 97 % of control and the T/C under setting [10] is 92 % of control.

Turning to `OC1CN2CCC1CC2` (stereo not given), the T/C runs as follows: (dose: 37.5 mg/kg/injection, schedule: Q01DX009 (ip), vehicle: saline) 94 % of control [survivor count not shown]; (dose: 75.0 mg/kg/injection, schedule: Q01DX009 (ip), vehicle: saline) 91 % of control [survivor count not shown]; under setting [13], 117 % of control [survivor count not shown]; (dose: 200.0 mg/kg/injection, schedule: Q04DX002 (ip), vehicle: saline) 103 % of control [survivor count not shown].
